Only a part is listed here, and it is no random draw. For part of these data: At the low end of the ranking the order means little. The list shows a part of the results. For part of these data: The source does not settle which construct or isoform was used.

The target in the first assay is T1, GABPA (UniProt Q06546).
T1 sequence: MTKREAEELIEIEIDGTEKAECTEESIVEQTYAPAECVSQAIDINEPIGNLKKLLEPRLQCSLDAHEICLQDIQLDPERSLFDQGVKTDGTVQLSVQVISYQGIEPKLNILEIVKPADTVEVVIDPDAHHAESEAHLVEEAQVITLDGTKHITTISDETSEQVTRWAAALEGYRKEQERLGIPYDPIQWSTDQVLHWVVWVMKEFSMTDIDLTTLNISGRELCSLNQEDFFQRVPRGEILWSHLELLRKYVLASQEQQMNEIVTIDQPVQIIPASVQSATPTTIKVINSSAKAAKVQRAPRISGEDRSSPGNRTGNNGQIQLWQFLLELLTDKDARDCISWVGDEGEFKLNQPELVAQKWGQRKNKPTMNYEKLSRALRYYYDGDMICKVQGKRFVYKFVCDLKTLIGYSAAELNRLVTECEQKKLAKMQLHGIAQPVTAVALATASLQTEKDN
In words: DAPPL (digital affinity profiling via proximity ligation, sequencing). To be noted: 10 mM Tris-HCl pH 7.5, 50 mM NaCl, 1 mM DTT, 4% glycerol, room temperature, 30 min; GST-TFs on glutathione beads, 16-mer random dsDNA library, 0.1% …; high values mean tight binding; double strand, one strand shown; scale: fold enrichment (6-mer frequency, TF over GST control).
For GGTTAA, the binding signal came to 0.889.

TTCGGG showed a binding signal of 0.842.

As to GACACT, the binding signal stood at 0.978.

With CGCTGG, the binding signal amounted to 0.975.

As for CCCCGC, the binding signal was found to be 1.2.

GACCGA: the binding signal was found to be 0.848.

GCCGCA yielded a binding signal of 1.02.

Take GTATGT: the binding signal was 0.967.

For the sequence TAGAGA, the binding signal was found to be 0.771.

As for CACCGC, the binding signal was determined as 1.06.

Regarding GATCTG, the binding signal turned out to be 0.918.

In the case of GTGTAA, the binding signal is 0.901.

CTTGAG showed a binding signal of 0.947.

In turn, TCGTTA registered a binding signal of 0.867.

As to GCAAAG, the binding signal came out at 0.912.

As for TGGTCG, the binding signal worked out at 1.08.

AGATAT registered a binding signal of 0.911.

Turning to GGCACC, the binding signal worked out at 0.77.

In turn, CTAGTA had a binding signal of 1.08.

CCAAGT showed a binding signal of 0.922.

In turn, GTGGAA displayed a binding signal of 0.977.

The sequence GACCCC came in with a binding signal of 0.975.

The sequence CTGTGG came in with a binding signal of 0.901.

With CGACGG, the binding signal stood at 1.09.

For ATAGGT, the binding signal turned out to be 0.973.

In turn, GTTGCC returned a binding signal of 0.928.

Sequence ACGCGA gave a binding signal of 0.911.

Consider GTTCGT, for which the binding signal is 0.997.

GGCAGC: the binding signal was determined as 0.879.

The sequence ACCCGT came in with a binding signal of 0.845.

In turn, TATTTA displayed a binding signal of 1.39.

Sequence AGGTGT yielded a binding signal of 0.81.

In turn, CGCTAA yielded a binding signal of 0.892.

GAAACC came in with a binding signal of 0.959.

In turn, TCCAGT yielded a binding signal of 0.67.

Sequence CGAGTA returned a binding signal of 0.891.

In turn, GATTTA displayed a binding signal of 0.964.

In turn, CAGAAG displayed a binding signal of 0.822.

In the case of CATCGT, the binding signal is 0.955.

As for TAACCG, the binding signal worked out at 0.98.

Another assay concerns the target T2, ETS1 (UniProt P14921).
T2 sequence: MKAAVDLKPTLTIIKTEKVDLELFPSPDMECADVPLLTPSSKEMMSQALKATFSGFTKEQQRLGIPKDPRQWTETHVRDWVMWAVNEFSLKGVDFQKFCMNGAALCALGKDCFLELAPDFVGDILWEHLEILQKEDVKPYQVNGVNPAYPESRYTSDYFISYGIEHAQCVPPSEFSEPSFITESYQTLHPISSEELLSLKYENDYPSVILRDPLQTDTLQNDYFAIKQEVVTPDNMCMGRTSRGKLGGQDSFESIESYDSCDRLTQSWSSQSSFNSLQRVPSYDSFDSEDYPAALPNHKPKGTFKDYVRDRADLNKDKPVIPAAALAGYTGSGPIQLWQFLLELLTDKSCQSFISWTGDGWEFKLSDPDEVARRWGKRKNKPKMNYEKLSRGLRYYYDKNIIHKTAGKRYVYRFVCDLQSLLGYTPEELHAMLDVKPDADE
Described as above. The note with it: 10 mM Tris-HCl pH 7.5, 50 mM NaCl, 1 mM DTT, 4% glycerol, room temperature, 30 min; GST-TFs on glutathione beads, 16-mer random dsDNA library, 0.1% …; high values mean tight binding; double strand, one strand shown; scale: fold enrichment (6-mer frequency, TF over GST control).
Sequence GGTTAA returned a binding signal of 0.902.

Sequence TTCGGG displayed a binding signal of 0.955.

GACACT: the binding signal came to 0.958.

CGCTGG registered a binding signal of 0.959.

CCCCGC came in with a binding signal of 1.26.

GACCGA gave a binding signal of 0.878.

Sequence GCCGCA gave a binding signal of 0.963.

For the sequence GTATGT, the binding signal was determined as 1.09.

On to TAGAGA, for which the binding signal was 0.793.

As for CACCGC, the binding signal was determined as 0.974.

Sequence GATCTG gave a binding signal of 0.902.

For the sequence GTGTAA, the binding signal was 0.938.

For CTTGAG, the binding signal stood at 0.928.

For the sequence TCGTTA, the binding signal is 0.983.

For the sequence GCAAAG, the binding signal was 0.949.

TGGTCG: the binding signal worked out at 1.02.

Sequence AGATAT registered a binding signal of 0.923.

Regarding GGCACC, the binding signal was 0.76.

With CTAGTA, the binding signal amounted to 1.16.

On to CCAAGT, for which the binding signal was 0.92.

In the case of GTGGAA, the binding signal came out at 0.901.

GACCCC showed a binding signal of 0.978.

The sequence CTGTGG returned a binding signal of 0.882.

In turn, CGACGG yielded a binding signal of 0.907.

Turning to ATAGGT, the binding signal was found to be 1.05.

GTTGCC displayed a binding signal of 0.829.

The sequence ACGCGA displayed a binding signal of 0.888.

GTTCGT: the binding signal was found to be 0.97.

In the case of GGCAGC, the binding signal was 0.85.

The sequence ACCCGT gave a binding signal of 0.922.

TATTTA came in with a binding signal of 1.48.

With AGGTGT, the binding signal is 0.944.

CGCTAA registered a binding signal of 0.945.

Regarding GAAACC, the binding signal turned out to be 0.97.

Consider TCCAGT, for which the binding signal is 0.665.

CGAGTA: the binding signal is 0.907.

For the sequence GATTTA, the binding signal amounted to 1.04.

For CAGAAG, the binding signal turned out to be 0.775.

Regarding CATCGT, the binding signal was 0.949.

Turning to TAACCG, the binding signal is 1.03.

The next assay has as its target T3, SPDEF (UniProt O95238).
T3 sequence: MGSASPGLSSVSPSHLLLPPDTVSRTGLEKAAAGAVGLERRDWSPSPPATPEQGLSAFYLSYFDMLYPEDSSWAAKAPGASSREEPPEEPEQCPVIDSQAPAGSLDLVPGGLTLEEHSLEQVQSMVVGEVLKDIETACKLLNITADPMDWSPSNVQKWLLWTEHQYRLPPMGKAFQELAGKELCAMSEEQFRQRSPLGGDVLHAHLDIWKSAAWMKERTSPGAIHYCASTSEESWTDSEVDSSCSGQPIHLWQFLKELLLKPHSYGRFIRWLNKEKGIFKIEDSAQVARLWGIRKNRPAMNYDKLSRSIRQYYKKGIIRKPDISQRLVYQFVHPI
The assay is described as above. To be noted: 10 mM Tris-HCl pH 7.5, 50 mM NaCl, 1 mM DTT, 4% glycerol, room temperature, 30 min; GST-TFs on glutathione beads, 16-mer random dsDNA library, 0.1% …; high values mean tight binding; double strand, one strand shown; scale: fold enrichment (6-mer frequency, TF over GST control).
GGTTAA gave a binding signal of 0.921.

For TTCGGG, the binding signal was 0.849.

For the sequence GACACT, the binding signal amounted to 0.951.

Regarding CGCTGG, the binding signal turned out to be 0.975.

Sequence CCCCGC came in with a binding signal of 1.06.

GACCGA showed a binding signal of 0.855.

In the case of GCCGCA, the binding signal worked out at 0.905.

Regarding GTATGT, the binding signal came to 0.947.

Regarding TAGAGA, the binding signal turned out to be 0.764.

As for CACCGC, the binding signal was determined as 0.883.

Regarding GATCTG, the binding signal is 0.969.

GTGTAA: the binding signal worked out at 0.893.

The sequence CTTGAG yielded a binding signal of 0.94.

As for TCGTTA, the binding signal worked out at 0.885.

With GCAAAG, the binding signal was 0.923.

TGGTCG yielded a binding signal of 0.962.

AGATAT: the binding signal amounted to 0.976.

With GGCACC, the binding signal came to 0.828.

Consider CTAGTA, for which the binding signal turned out to be 1.11.

CCAAGT gave a binding signal of 0.919.

In the case of GTGGAA, the binding signal is 0.886.

In turn, GACCCC returned a binding signal of 0.941.

As to CTGTGG, the binding signal is 0.898.

In turn, CGACGG had a binding signal of 0.907.

In turn, ATAGGT gave a binding signal of 1.05.

Take GTTGCC: the binding signal is 0.978.

For the sequence ACGCGA, the binding signal came out at 0.898.

GTTCGT: the binding signal came to 0.873.

Sequence GGCAGC returned a binding signal of 0.916.

The sequence ACCCGT registered a binding signal of 0.873.

As to TATTTA, the binding signal is 1.47.

For the sequence AGGTGT, the binding signal came out at 0.805.

With CGCTAA, the binding signal stood at 0.887.

The sequence GAAACC came in with a binding signal of 0.994.

The sequence TCCAGT displayed a binding signal of 0.62.

On to CGAGTA, for which the binding signal worked out at 0.837.

GATTTA displayed a binding signal of 1.08.

The sequence CAGAAG had a binding signal of 0.713.

For the sequence CATCGT, the binding signal worked out at 0.832.

Sequence TAACCG yielded a binding signal of 1.1.

The values are drawn from article PMC7862700.
